# Data published in patent US20180289655A1, “Methods and Compositions for the Intravenous Administration of Fumarates for the Treatment of Neurological Diseases” (Biogen MA Inc., priority 2015, published 2018).
# Structures can show the parent of a compound that is named as a salt. At least one compound was matched to its structure with a doubt left.
# Tested on: Nrf2 target genes
# Test: qRT-PCR of Nrf2 target genes, statements over all tested genes
# Assay type: in vivo, C57BL/6 mice
# Conditions: Study 2, MMF IV 27.08 mg/kg, 2 and 6 hours, vs vehicle
# Description: For RNA preparation, frozen tissues were placed in 2 mL RNAse-free 96-well blocks with 1.5 mL QIAzol Lysis Reagent (QIAgen) and a 3.2 mm stainless steel bead (BioSpec Products, Bartlesville, Okla.). Tissues were disrupted for four cycles of 45 seconds in a Mini-Beadbeater (Biospec Products). RNA was extracted with chloroform and the aqueous phase was mixed with an equal volume of 70% ethanol. Extracted RNA was applied to RNeasy 96 plates and purified by the spin method according to the manufacturer's protocol (RNeasy 96 Universal Tissue Protocol, QIAgen, Hilden Germany).
# Samples were reverse-transcribed into cDNA according to the manufacturer protocols using the High Capacity cDNA Reverse Transcription Kit (Life Technologies, Carlsbad, Calif.) and analyzed by qRT-PCR. Mouse target gene primers and 6-FAM™ dye-labeled TaqMan® MGB™ probes (Life Technologies) were used. […] All samples were measured in triplicate with Gapdh as a normalizing gene. […]
# Ten minutes after dosing, 4 animals from each group were sacrificed, and plasma and tissues (brain, kidney, jejunum and spleen) were collected to quantify MMF exposure levels, as well as whole blood to perform CBC. […]
# A CBC with differential panel was performed at 10 minutes post-last dose via facial vein bleeding, and at 2 hours after the last dose, pharmacodynamic Nrf2 transcriptional responses were analyzed in tissues from the same animals. […]
compound,measurement,value
"COC(=O)/C=C/C(=O)O [MMF, monomethyl fumarate]","Increase in transcription of any gene, brain",no significant increase in transcription of any gene
